PubChem BioAssay AID686937, Drosophila RNAi Screening Center | 2013

Purpose: 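Genes in the fly needed for secretion of protein constitutively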 (primary screen)
Cell system: Drosophila S2 cells expressing secreted horseradish peroxidase
Knock-down reagent: long dsRNA against Drosophila genes
Time to read-out: about 5.5 days (5 days dsRNA, then 12 h reporter induction)
Conditions: reporter expression induced after 5 days of dsRNA, read 12 h later; inducer not stated
Read-out: 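Chemiluminescent measurement of peroxidase in the medium 12 h after reporter induction, following 5 days of dsRNA, given as a z-score per plate; higher means more secretion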
Scale: z-score: higher = more reporter secreted into medium
In all, the deposit lists about 23,000 reagents; below is a random part of those with a known target gene and a result. 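Reduced-secretion tags in replicate 1 do not always agree with the z-scores; no criterion for assigning the tags was given.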 Reagents against one gene are numbered here. Further read-outs or replicates are left out here. Reagent sequences are not shown. Not stated in the record: the amount of reagent.

Hap40 (Huntingtin-associated protein 40 kDa) → z-score, replicate 1 = 0.25
CG13001 #1 → z-score, replicate 1 = 0.31
CG13001 #2 → z-score, replicate 1 = 0.21
Gdap2 #1 → z-score, replicate 1 = 0.37
Gdap2 #2 → z-score, replicate 1 = 0.28
Ugt35C1 (UDP-glycosyltransferase family 35 member C1) → z-score, replicate 1 = 0.26
Or94a (Odorant receptor 94a) → z-score, replicate 1 = 0.22
CG4962 → z-score, replicate 1 = 0.5
SkpC (SKP1-related C) → z-score, replicate 1 = 0.53
betaTub65B (beta-Tubulin at 65B) → z-score, replicate 1 = 0.43
Hsp60B (Heat shock protein 60B) → z-score, replicate 1 = 0.17
CG14086 → z-score, replicate 1 = 0.3
CG10254 → z-score, replicate 1 = -0.07
bw (brown) #1 → z-score, replicate 1 = 0.43
bw (brown) #2 → z-score, replicate 1 = 0.02
CG2267 → z-score, replicate 1 = 0.23

3 neighbouring entries from above, for reference:
Hsp60B (Heat shock protein 60B) → z-score, replicate 1 = 0.17
CG14086 → z-score, replicate 1 = 0.3
CG10254 → z-score, replicate 1 = -0.07

The listing continues:
CNPYb (Canopy b) → z-score, replicate 1 = 0.15
CG2121 #1 → z-score, replicate 1 = 0.33
CG2121 #2 → z-score, replicate 1 = 0.42
klhl10 (kelch like family member 10) #1 → z-score, replicate 1 = 0.38
klhl10 (kelch like family member 10) #2 → z-score, replicate 1 = -0.01
klhl10 (kelch like family member 10) #3 → z-score, replicate 1 = 0.17
klhl10 (kelch like family member 10) #4 → z-score, replicate 1 = 0.04
CG14416 → z-score, replicate 1 = 0.48
CG12643 → z-score, replicate 1 = 0.16
CAH16 (Carbonic anhydrase 16) → z-score, replicate 1 = -0.81
Hmgs (HMG Coenzyme A synthase) → z-score, replicate 1 = -1.91; phenotype, replicate 1 = reduced secretion
CG3434 → z-score, replicate 1 = 0.21
eIF2alpha (eukaryotic translation initiation factor 2 subunit alpha) → z-score, replicate 1 = -1.5; phenotype, replicate 1 = reduced secretion
CG15124 → z-score, replicate 1 = 0.49
Acbp6 (Acyl-CoA binding protein 6) → z-score, replicate 1 = 0.38
CG34054 → z-score, replicate 1 = 0.33
Trf4-2 (Topoisomerase related function 4-2) → z-score, replicate 1 = 0.35
Gasz → z-score, replicate 1 = 0.39
CG30457 → z-score, replicate 1 = 0.24
et (eye transformer) → z-score, replicate 1 = 0.46
dar1 (dendritic arbor reduction 1) #1 → z-score, replicate 1 = 0.27
dar1 (dendritic arbor reduction 1) #2 → z-score, replicate 1 = -0.03
Lac (Lachesin) → z-score, replicate 1 = 0.54
CG4678 #1 → z-score, replicate 1 = -0.2
CG4678 #2 → z-score, replicate 1 = 0.14
